Measured values: patent US8367039B2, “Compounds for the diagnosis of diseases associated with VCAM expression” (Guerbet, priority 2007, dated 2013)
At least one peptide structure holds a part that was inferred or is arguable (an end, a ring closure or a residue). Bridge positions count the residues as written; N and C are the ends. Peptide text beside a SMILES is read from it. * marks the point of attachment. X1 = O=C(O)CN1CCN(CC(=O)O)CCN(C(CCCNc2c(NCCOCCOCC(=O)*)c(=O)c2=O)C(=O)O)CCN(CC(=O)O)CC1

How the values were obtained:
[1] = biological target: T1, atheroma plaque (VCAM-1) (Mus musculus, UniProt P29533); experiment: MRI in vivo on a model of atherosclerosis in apoE-/- mice; conditions: 100 μmol Gd/kg i.v., RARE and MSME sequences, 7-60 min post-injection, FIG. 4
T1 construct: from tissue; host or cells: abdominal aorta wall (atheroma plaque) of female C57Bl6 ApoE-/- mice in vivo
T1 sequence (P29533 25-739): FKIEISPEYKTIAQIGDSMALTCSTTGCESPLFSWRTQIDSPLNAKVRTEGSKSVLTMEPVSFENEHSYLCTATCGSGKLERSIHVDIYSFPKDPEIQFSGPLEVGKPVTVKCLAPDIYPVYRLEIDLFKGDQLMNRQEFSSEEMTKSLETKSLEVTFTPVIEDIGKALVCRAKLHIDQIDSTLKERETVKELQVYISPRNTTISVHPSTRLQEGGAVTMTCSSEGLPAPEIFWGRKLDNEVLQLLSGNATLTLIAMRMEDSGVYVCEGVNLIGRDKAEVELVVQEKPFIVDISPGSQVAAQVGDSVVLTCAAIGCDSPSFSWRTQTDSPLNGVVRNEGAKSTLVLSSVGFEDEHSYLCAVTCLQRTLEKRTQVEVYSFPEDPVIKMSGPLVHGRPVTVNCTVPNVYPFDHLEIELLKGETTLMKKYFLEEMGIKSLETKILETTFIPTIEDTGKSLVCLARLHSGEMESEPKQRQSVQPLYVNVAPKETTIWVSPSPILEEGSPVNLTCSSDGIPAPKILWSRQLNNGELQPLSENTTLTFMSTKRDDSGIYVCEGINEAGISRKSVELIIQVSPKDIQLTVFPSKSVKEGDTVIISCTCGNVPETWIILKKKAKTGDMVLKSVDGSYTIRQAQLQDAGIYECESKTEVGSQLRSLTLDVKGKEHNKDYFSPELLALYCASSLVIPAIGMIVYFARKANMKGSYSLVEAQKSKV

[2] = biological target: T2, VCAM-1 (Mus musculus, UniProt P29533); experiment: MRI in vivo on a model of Con-A-induced hepatitis in mice; conditions: 100 μmol Gd/kg i.v.
T2 construct: from tissue; host or cells: liver of Balb/c mice in vivo, Con-A-induced hepatitis
T2 sequence (P29533 25-739): T1 sequence (P29533 25-739)
Procedure: Before the MRI acquisition, the mice are anesthetized with pentobarbital. All the experiments are carried out on a 200 MHz Bruker spectrometer (4.7 T) equipped with a vertical magnet and with a microimaging system.
The hepatitis is induced by i.v. injection of 20 mg/kg of Con-A in Balb/c mice weighing approximately 26 g. The literature reports that VCAM-1 is massively expressed in the liver between 4 and 8 hours after the injection of Con-A. The MRI protocol is the following: (1) the precontrast MRI begins 4h30 after the injection of Con-A; (2) the contrast product is injected at the dose of 100 μmol Gd/kg approximately 5 h after the injection of Con-A; (3) several post-contrast acquisitions are carried out for 1 h30 every 7 minutes. […]
For the two models, the SI values are measured in various regions of interest (at the level of the arterial wall of the abdominal aorta or whole liver) using the OSIRIS image analysis software. […] The SI value is measured on all the image slices where the arterial wall and the liver are visible. […] The increase in the signal/noise ratio (% ΔSNR) is calculated according to the following equation: % ΔSNR=[(SIpost/SDnoise)−(SIpre/SDnoise)]/[SIpre/SDnoise]×100 where SDnoise is the standard deviation of the noise measured on a region outside the animal.

In the case of C[C@@H](O)[C@@H]1NC(=O)[C@H](Cc2c[nH]cn2)NC(=O)[C@H](CO)NC(=O)[C@H](CCCCN)NC(=O)[C@H](CO)NC(=O)[C@H](CC(N)=O)NC(=O)[C@H](CC(N)=O)NC(=O)[C@@H](NC(=O)COCCOCCNc2c(NCCCC(C(=O)O)N3CCN(CC(=O)O)CCN(CC(=O)O)CCN(CC(=O)O)CC3)c(=O)c2=O)CSSC[C@@H](C(=O)O)NC1=O (stereo partly drawn) [Gd-DOTA-NNSKSHT] (X1-CNNSKSHTC-OH; disulfide 1-9), the “MRI signal enhancement at the level of the abdominal aorta” value [1] is reported as “signal enhancement greater than that measured with the ungrafted Gd-DOTA product”, the “change in signal/noise ratio (% ΔSNR) of the liver over time, hepatitis versus healthy mouse” value ([2]; liver, FIG. 3) is reported as “greater enhancement of the MRI signal in the hepatitis model compared with the liver in the healthy mouse” and the “time for which the MRI signal is maintained” value ([2]; mouse suffering from hepatitis) is reported as “at least 70 minutes”.
